No constants are given. Whether binding was seen depends on the method and setting. Some results given as binding are weak or reduced against the parent protein; the word gives no strength.
Molecular target: human ILT3 (immunoglobulin-like transcript 3) on circulating myeloid cells in blood (human) (UniProt Q8NHJ6)
Assay: receptor occupancy in blood samples of solid tumor trial participants, in vivo dosing Q3W

Protein sequences, listed by entry. Tags and fused reporters are not part of them. Residues count along the entry.
UniProt Q8NHJ6, residues 22-448: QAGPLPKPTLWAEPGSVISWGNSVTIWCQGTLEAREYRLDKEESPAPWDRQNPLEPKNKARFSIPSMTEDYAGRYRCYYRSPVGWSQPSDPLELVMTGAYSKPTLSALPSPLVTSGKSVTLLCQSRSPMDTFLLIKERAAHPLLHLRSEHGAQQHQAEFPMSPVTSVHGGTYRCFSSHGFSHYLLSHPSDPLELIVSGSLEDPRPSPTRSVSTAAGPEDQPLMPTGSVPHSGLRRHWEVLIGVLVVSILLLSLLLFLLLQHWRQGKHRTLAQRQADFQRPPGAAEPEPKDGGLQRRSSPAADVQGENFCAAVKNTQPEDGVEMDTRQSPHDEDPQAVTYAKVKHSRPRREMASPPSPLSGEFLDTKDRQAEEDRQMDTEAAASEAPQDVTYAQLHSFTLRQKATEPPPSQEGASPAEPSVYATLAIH

binding: binds
B1: Humanized anti-ILT3 mAb (52B8 VH1 M64V/VL5 N34Q) IgG4 S228P/Kappa (antibody, V domains shown)
VH: EVQLVESGGGLVQPGGSLRLSCAASGFTFSNYGMSWVRQAPGKGLEWVATISGGGDYTNYPDSVRGRFTISRDNAKNSLYLQMNSLRAEDTAVYYCGRRLWFRSLYYAMDYWGQGTLVTVSS
VL: DIQLTQSPSSLSASVGDRVTITCRASEKVDSFGQSFMHWYQQKPGKAPKLLIYLTSNLDSGVPSRFSGSGSGTDFTLTISSLQPEDFATYYCQQNNEDPYTFGQGTKLEIKR
